Laboratory results reported in article PMC9106359.

Each substance was assayed against T1, MYC-SR-A1 (in HEK293 cells) (UniProt P30204) (assay: co-IP; HEK293 cells cotransfected with the FLAG-tagged N/M/C1/C2 fragments of USP9X and MYC-SR-A1; IP of whole cell lysates with MYC magnetic beads).
T1 sequence: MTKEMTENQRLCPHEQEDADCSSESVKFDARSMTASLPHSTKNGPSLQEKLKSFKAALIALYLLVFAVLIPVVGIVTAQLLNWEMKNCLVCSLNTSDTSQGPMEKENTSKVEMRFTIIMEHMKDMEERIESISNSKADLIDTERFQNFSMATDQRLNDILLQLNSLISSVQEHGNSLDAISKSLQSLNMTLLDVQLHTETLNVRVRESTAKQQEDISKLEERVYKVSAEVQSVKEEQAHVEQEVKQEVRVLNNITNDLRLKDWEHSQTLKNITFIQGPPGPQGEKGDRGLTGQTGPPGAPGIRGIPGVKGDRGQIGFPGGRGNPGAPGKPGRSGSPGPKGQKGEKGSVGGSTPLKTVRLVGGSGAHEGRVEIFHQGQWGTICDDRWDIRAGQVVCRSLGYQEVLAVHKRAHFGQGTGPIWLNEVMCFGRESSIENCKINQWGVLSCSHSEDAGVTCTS

With “FLAG-USP9X-M (the middle region of USP9X) (domain or fragment)” as the substance, how does the binding read?
Its binding is “binds”.

Which binding does the source give for “FLAG-tagged USP9X fragment N (the N-terminus containing the α-α supercoil structure) (domain or fragment)” here?
Its binding is “no binding”.

With “FLAG-tagged USP9X fragment C1 (containing the ubiquitin-specific protease domain) (domain or fragment)” as the substance, how does the binding read?
The binding was “no binding”.

Results are given in words; binding and its absence hold for the method and conditions named. In cells and extracts the contact can be indirect. A result given as binding can be weak or reduced; the word gives no strength. Tags and fused reporters may be left off the sequences shown.
